# In patent US20260193326A1:
# Amino acid sequences for entries named in this document (tags omitted).
# UniProt P03135: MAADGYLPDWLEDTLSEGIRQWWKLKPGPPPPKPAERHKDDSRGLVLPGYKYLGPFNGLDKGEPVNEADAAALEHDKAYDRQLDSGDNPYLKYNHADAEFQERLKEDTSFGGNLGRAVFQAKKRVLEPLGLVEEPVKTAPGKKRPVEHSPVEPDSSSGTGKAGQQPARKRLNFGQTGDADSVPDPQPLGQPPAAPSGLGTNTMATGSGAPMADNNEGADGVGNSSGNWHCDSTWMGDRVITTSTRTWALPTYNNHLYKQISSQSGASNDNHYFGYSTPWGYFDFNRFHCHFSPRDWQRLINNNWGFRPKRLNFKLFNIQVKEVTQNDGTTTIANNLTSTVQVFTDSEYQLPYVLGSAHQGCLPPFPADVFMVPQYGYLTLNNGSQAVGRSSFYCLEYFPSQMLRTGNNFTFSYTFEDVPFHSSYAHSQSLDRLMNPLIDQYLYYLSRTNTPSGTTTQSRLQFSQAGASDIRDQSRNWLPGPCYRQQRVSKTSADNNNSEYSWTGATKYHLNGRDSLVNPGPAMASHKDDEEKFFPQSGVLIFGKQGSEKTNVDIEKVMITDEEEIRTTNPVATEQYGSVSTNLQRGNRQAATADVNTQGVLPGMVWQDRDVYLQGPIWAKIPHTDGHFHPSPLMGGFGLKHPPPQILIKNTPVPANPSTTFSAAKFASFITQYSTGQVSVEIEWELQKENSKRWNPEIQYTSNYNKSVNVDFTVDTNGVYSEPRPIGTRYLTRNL
# Where a chain is given by its changes, count along the chain named. No constants are given. Whether binding was seen depends on the method and setting. Some binding calls cover weakened binding; strength is not graded here.
# B1: A4-H1 (VHH)
# VHH: VQLVESGGGLVQPGGSLRLSCAASGRSFSINTMGWFRQAPGKGLEAVAIVTRGGSTYYADSVKGRFTISRDNSKNTLYLQMNSLRAEDTAVYYCHIDEVRQSSWTTSNIWGQGTLVTVSS
# B2: A4-H4 (VHH)
# VHH: B1 VHH with R26S, S27I, T32L, A46L, V50I, R52P, S55N, L77V, I96V, I109L
# B3: A4-B3 (VHH)
# chain: VQLVESGGGLVQPGGSLRLSCAASGRSFSINTMGWFRQAPGKGLEAVAIVTRGGSTYYADSVKGRFTISRDNSKNTLYLQMNSLRAEDTAVYYCHIDEVRQSSWTTSNIWGQGTLVTVSSGGGGSGGGGSGGGGSVQLVESGGGLVQPGGSLRLSCAASGRSFSINTMGWFRQAPGKGLEAVAIVTRGGSTYYADSVKGRFTISRDNSKNTLYLQMNSLRAEDTAVYYCHIDEVRQSSWTTSNIWGQGTLVTVSS
# B4: A4-B4 (bispecific antibody)
# chain: B3 chain with R161S, S162I, T167L, A181L, V185I, R187P, S190N, L212V, I231V, I244L
# What was measured:
# [1] = molecular target: AAV2 (adeno-associated virus serotype 2 (AAV2)) (UniProt P03135); test: SPR, recombinant AAV particles amine-coupled to CM5 chip
# [2] = molecular target: AAV2 (adeno-associated virus serotype 2 (AAV2)) (UniProt P03135); test: SPR, AAV amine-coupled to CM5 chip
Binder,binding [1],binding [2]
B1,binds,–
B2,binds,–
B3,–,binds
B4,–,binds
